Measured values taken from PubChem BioAssay AID1259415 (National Center for Advancing Translational Sciences (NCATS), 2018).
The campaign covered roughly 410,000 compounds. About 18,000 (4.4%) were called active. Inconclusive results, whose numbers are uncertain, are shown with a selection of clear calls. Cut-off read from the data, not from the text of the source: active = activity change below about -60%; inconclusive = no clear call, values can overlap the other calls; inactive = above about -39%.

Experiment: qHTS Assay for inhibitors of the human cytomegalovirus (HCMV)
Conditions: HFF cells, HCMV-luciferase reporter, 72 h; at 57.5 µM; stronger effect = lower value
Outline: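 Cell-based, HFFs, 1000 cells/well, 16 h 37C; cpds in DMSO + HCMV-luc, MOI 1 PFU/cell; 72 h 37C; OneGlo luminescence after 5 min RT; norm. to buffer vs Salinomycin 10uM.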
% is set by controls: 0 for no effect and ±100 for the full control effect.

Row | Compound | activity change, negative = inhibition
1 | Nc1nnn(CC(=O)N/N=C/c2cccc(Cl)c2)n1 | inconclusive: -41.2%
2 | Cc1ccc(Oc2cnc3ccccc3n2)cc1 | inconclusive: -48.5%
3 | O=C(N/N=C/c1ccccc1OC(=O)c1ccc2c(c1)OCO2)c1ccccc1 | inactive: 16.6%
4 | COc1ccc2nc(N=Nc3ccc(N(C)C)cc3)sc2c1 | inactive: 25.4%
5 | Cc1cc(C)cc(C(=O)Nc2ccc(-c3cn4cccnc4n3)cc2)c1 | inconclusive: -59.1%
6 | COc1ccc(N2CCN(C(=O)NCc3ccc(C)cc3)CC2)cc1 | inconclusive: -42.7%
7 | O=C(C[C@@H]1C=C[C@@H](NC(=O)C2CC2)[C@@H](CO)O1)NCc1ccccc1Cl | active: -61.8%
8 | Cc1cc(C)c(S(=O)(=O)NCc2ccc3c(c2)cc(C)n3C)c(C)c1 | active: -93.1%
9 | Cc1nc(N2CCN(c3ccccn3)CC2)c2c(C)c(C(=O)Nc3ccc(F)cc3)sc2n1 | inconclusive: -52.4%
10 | CCCSc1nsc(NC(=O)CC)n1 | inactive: 11.1%
11 | CN(C)CCCNc1nc2sc3c(c2c(=O)n1CCc1ccccc1)CCCCC3 | inconclusive: -55.8%
12 | COc1ccc(/C=C/C(=O)NCc2ccc(F)cc2)cc1S(=O)(=O)N1CCOCC1 | inconclusive: -50.2%
13 | CCc1nnc(NC(=O)CSc2nc3c([nH]c4ccccc43)c(=O)n2-c2cc(C)cc(C)c2)s1 | inactive: 19.8%
14 | COc1ccc(C2=CN(Cc3ccccc3)C(c3ccccc3)CC2=O)cc1 (stereo not drawn) | inactive: 57.2%
15 | Cc1cc(OC(=O)c2ccc(S(=O)(=O)N3CCOCC3)cc2)c([N+](=O)[O-])c(=O)[nH]1 | inactive: -35.2%
16 | O=C1CC(c2nc3ccccc3n2CCCCOc2ccccc2)CN1c1ccccc1Cl (stereo not drawn) | inactive: 0.573%
17 | CCOc1ccc(/C=N/OCC(=O)NCc2ccco2)cc1 | inconclusive: -42.1%
18 | c1ccc(-c2nc(N3CCCCCC3)c3ccccc3n2)nc1 | active: -99%
19 | Oc1ccc(C[C@@H]2CNCCN2CC2CCCCC2)cc1 | inconclusive: -47.8%
20 | COc1ccc(N)cc1C#N | inconclusive: -40.9%
21 | COc1ccc(OC)c(S(=O)(=O)N2CCC(C(=O)Nc3cccc(C(F)(F)F)c3)CC2)c1 | inconclusive: -41.8%
22 | Cc1ccc(Nc2nc(N)nc(CSc3nncn3C)n2)cc1 | inactive: 17.6%

Row | Compound | activity change, negative = inhibition
23 | CCCS(=O)(=O)N1CCN=C1SCc1cccc(C)c1 | inconclusive: -51.2%
24 | Cc1ccccc1OCC(=O)OCC(=O)NC1CCCC(C)C1C (stereo not drawn) | inconclusive: -51.8%
25 | Nc1nc(NCc2ccccc2)nc(NCc2ccccc2)c1[N+](=O)[O-] | inconclusive: -40.8%
26 | CCCn1c(=O)c(C(=O)NCCc2ccc(OC)c(OC)c2)c(O)c2ccccc21 | inactive: 11%
27 | O=C(CN1C2CCC1CC(NC(=O)C1CC1)C2)NCc1ccccc1 (stereo not drawn) | inactive: 18.9%
28 | CC(C)(C)Nc1nc(-c2ccccn2)nc2ccccc12 | active: -100%
29 | Cc1ccc(Nc2c([N+](=O)[O-])cc(C(=O)N3CC(=O)Nc4ccccc43)cc2[N+](=O)[O-])c(C)c1 | inconclusive: -43.6%
30 | COc1ccc(OC)c(C=C2CCc3ccccc3C2=O)c1 | active: -95.9%
31 | O=c1c2ccccc2ncn1-c1ccccc1C(F)(F)F | inconclusive: -47.3%
32 | Cc1ccccc1CNC(=O)C(C)n1nc(C)n2c(cc3occc32)c1=O (stereo not drawn) | inactive: -9.19%
33 | CC(C)(C)c1ccc(Oc2ccc(N)cc2)cc1 | active: -86.3%
34 | CN(CC(=O)NC1(C)CCS(=O)(=O)C1)S(=O)(=O)c1ccc(Cl)cc1 (stereo not drawn) | inactive: 26.1%
35 | CCN(c1ccccc1)S(=O)(=O)c1nnc(NC(=O)COc2ccc(OC)cc2)s1 | inactive: 22.8%
36 | Cc1cccc2c(=O)c(Br)c(C)n(Cc3ccccc3)c12 | inconclusive: -46.9%
37 | CC1Sc2ccc(S(=O)(=O)N3CCN(c4ccccc4)CC3)cc2NC1=O (stereo not drawn) | inconclusive: -54.6%
38 | CC(Oc1ccc(Br)cc1)c1nc2c3ccccc3nc(=S)n2[nH]1 (stereo not drawn) | inactive: -29%
39 | Cc1cccc(N2C(=O)CC(Sc3nccc(C)n3)C2=O)c1 (stereo not drawn) | active: -97.6%
40 | Cc1ccc(N2CCN(C3=NC(=O)C(Cc4ccccc4)S3)CC2)cc1 (stereo not drawn) | inactive: -27.2%
41 | COc1cccc2c1C(=O)c1c(O)c3c(c(O)c1C2=O)CC(O)(C(=O)CO)CC3OC1CC(N(C)C)C(O)C(C)O1 (stereo not drawn) | active: -98.4%
42 | CSc1ncccc1C(=O)OCC(=O)N1CC2(C)CC1CC(C)(C)C2 (stereo not drawn) | inconclusive: -49.7%
43 | CCOc1ccc(N2CC(c3nc(-c4cc(OC)c(OC)c(OC)c4)no3)CC2=O)cc1 (stereo not drawn) | inactive: 13%
44 | Cc1ccc(S(=O)(=O)N2CCN(C(=O)COC(=O)/C=C/c3ccccc3[N+](=O)[O-])CC2)c(C)c1 | inconclusive: -45.9%

Among those listed so far, 3 have an NH in an aromatic ring:
Row | Compound | activity change, negative = inhibition
13 | CCc1nnc(NC(=O)CSc2nc3c([nH]c4ccccc43)c(=O)n2-c2cc(C)cc(C)c2)s1 | inactive: 19.8%
15 | Cc1cc(OC(=O)c2ccc(S(=O)(=O)N3CCOCC3)cc2)c([N+](=O)[O-])c(=O)[nH]1 | inactive: -35.2%
38 | CC(Oc1ccc(Br)cc1)c1nc2c3ccccc3nc(=S)n2[nH]1 (stereo not drawn) | inactive: -29%

Next records.

Row | Compound | activity change, negative = inhibition
45 | CN(C)S(=O)(=O)Oc1ccc(C(=O)Nc2cccc(C(F)(F)F)c2)cc1 | active: -76.2%
46 | O=c1[nH]c(Nc2ccc3c(c2)OCCO3)nnc1Cc1ccccc1 | active: -73.2%
47 | O=C(O)C1CCCCC1C(=O)Nc1nc(-c2ccc(Cl)s2)cs1 (stereo not drawn) | inconclusive: -41.2%
48 | CCSC(C)CC1C/C(=N/O)c2c(C)noc2C1 (stereo not drawn) | inconclusive: -45.7%
49 | O=c1c(Cl)cc(Cl)nn1-c1ccccc1 | active: -66.4%
50 | COc1ccccc1-n1c(=O)c(C#N)c(-c2ccc([N+](=O)[O-])cc2)c2cc(C(=O)c3cc(F)ccc3O)cnc21 | inconclusive: -46.3%
51 | COc1ccccc1C(=O)Nc1ccc(OC(C)C(=O)N2CCOCC2)cc1 (stereo not drawn) | inconclusive: -56.9%
52 | Cc1ccccc1Cn1c(O)c(N=NC(=S)Nc2ccccc2F)c2ccccc21 | inconclusive: -47%
53 | COc1ccc2nc(N3C(=O)C(O)=C(C(=O)c4ccco4)C3c3ccccc3OC)sc2c1 (stereo not drawn) | inconclusive: -47.8%
54 | CCOc1ccccc1OCCCC(=O)N(CC)CC(=O)Nc1c(F)cccc1F | inactive: -13.9%
55 | CC(=O)Nc1ccc(Sc2ccc([N+](=O)[O-])o2)cc1 | active: -98.2%
56 | Cc1cccc(OCC(=O)Nc2ccc(S(=O)(=O)Nc3cc(C)nc(C)n3)cc2)c1 | inconclusive: -43.2%
57 | Cc1ccccc1Nc1nc(N)nc(CSc2n[nH]c(N)n2)n1 | inconclusive: -41%
58 | O=C(CCN1CCN(c2ccccc2F)CC1)Nc1ccccc1F | inactive: -2.08%
59 | Cc1ccc(CN=C(N)Nc2nc(C)cc(C)n2)cc1 | active: -79.6%
60 | CCN(CC)CCNCc1ccc(Br)cc1OCC(=O)NCc1ccccc1 | inconclusive: -47%
61 | Cc1nnc(SCc2cc(=O)n3c(C)cccc3n2)s1 | inactive: 118%
62 | CCOC(=O)N1CCC(Nc2c(-c3ccc(C)c(C)c3)c(=O)c2=O)CC1 | inactive: -21.2%
63 | CCn1c2ccccc2c2cc(NC(=O)c3cc(OC)c(OC)c(OC)c3)ccc21 | active: -87.6%
64 | CC1(NCc2ccc(Cl)cc2)COP(=O)(NCc2ccccc2)OC1 (stereo not drawn) | active: -82.8%
65 | Cc1ccc(NC(=O)N/C=C/c2ccc(Cl)cc2)cc1 | inconclusive: -47.6%
66 | C=CCSC1=C(C#N)C(c2ccccc2Cl)CC(=O)N1 (stereo not drawn) | inactive: -2.92%

In another format: entries from further up
Row	Compound	activity change, negative = inhibition
29	Cc1ccc(Nc2c([N+](=O)[O-])cc(C(=O)N3CC(=O)Nc4ccccc43)cc2[N+](=O)[O-])c(C)c1	inconclusive: -43.6%
30	COc1ccc(OC)c(C=C2CCc3ccccc3C2=O)c1	active: -95.9%
31	O=c1c2ccccc2ncn1-c1ccccc1C(F)(F)F	inconclusive: -47.3%

Further records:

Row | Compound | activity change, negative = inhibition
67 | CCOC(=O)c1c(NC(C)=O)sc2c(OCCN(CC)CC)c(Br)ccc12 | inconclusive: -44.6%
68 | O=C(Cc1csc(-c2cccc(Cl)c2)n1)Nc1cccc(S(=O)(=O)NC2=NCCC2)c1 | inconclusive: -57.8%
69 | CCc1nn(C(C)C(=O)NCc2ccc(Cl)cc2)c(=O)c2cc3occc3n12 (stereo not drawn) | inactive: -3.03%
70 | FC(F)(F)c1ccccc1Cc1c(-c2ccccc2)nc2ccc(Br)cn12 | inactive: 20%
71 | CCOc1ccc(-c2c(C(=O)N/N=C/c3ccc(C)o3)nnn2-c2nonc2N)cc1 | inconclusive: -45.6%
72 | COc1ccc(S(=O)(=O)N2CCCCCC2)cc1N(C)S(=O)(=O)c1ccc(C)cc1 | active: -77.2%
73 | O=c1cccc2n1CC1CC2CN(Cc2cccc(Cl)c2Cl)C1 (stereo not drawn) | inconclusive: -45.1%
74 | O=C(NCc1ccc(Cl)cc1)c1cccc(NC(=O)c2ccccc2)c1 | inconclusive: -42%
75 | CC(=O)NC(=Cc1ccccc1)C(=O)N1CCCC1C(=O)O (stereo not drawn) | inactive: -12.6%
76 | CCC1=[N+](CC(=O)c2ccc(C)cc2)CCn2c(C)ccc21 | active: -63.2%
77 | COc1ccc(CNC(=O)CSc2nn3c(=O)c(C(C)(C)C)nnc3s2)cc1OC | inconclusive: -43.7%
78 | COc1ccc(CC(=O)Nc2cc(S(=O)(=O)N3CCOCC3)ccc2N2CCCC2)cc1 | inactive: -27.7%
79 | CN(c1ccccc1)S(=O)(=O)c1ccc(NC(=O)c2ccc(-c3ccccc3)cc2)cc1 | active: -95.9%
80 | CCN(CC)S(=O)(=O)c1ccc(N2CCCC2)c(NS(=O)(=O)c2ccc(OC)cc2)c1 | inconclusive: -47.4%
81 | Cc1nn(CC(=O)NCCc2ccc(Cl)cc2)c(=O)c2cc3cc(F)ccc3n12 | inactive: 20.5%
82 | COc1ccc(CC2S/C(=N/N=C/c3ccccc3O)NC2=O)cc1 (stereo not drawn) | inconclusive: -58.6%
83 | N#Cc1ccc(C2=NC(C(F)(F)F)(C(F)(F)F)c3c(n(Cc4ccco4)c(=O)[nH]c3=O)N2)cc1 | active: -85.1%
84 | S=C(Nc1ccc(Oc2ccccc2)cc1)N(CCCN1CCOCC1)Cc1ccccn1 | inconclusive: -59%
85 | CCn1c(SCc2ccccc2)nnc1-c1cccnc1 | inconclusive: -40.1%
86 | O=c1c(-c2cccs2)cc(-n2c(=O)[nH]c3ccccc32)cn1-c1ccccc1 | inactive: -6.36%
87 | CCCCCCCOc1ccc(C(=O)Nc2cccnc2)cc1 | inconclusive: -40.8%
88 | CCOC(=O)C1CCCN(C(=O)c2ccc3c(=O)n(CCOC)c(=S)[nH]c3c2)C1 (stereo not drawn) | inconclusive: -41.5%
